Laboratory results reported in PubChem BioAssay AID1508600 (Functional Genomics Laboratory (NCATS/FGL), 2020).
The campaign covered roughly 53,000 sequences. About 3,700 (7%) were called active.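 How the source made its calls: active means gene knockdowns whose robust z-score for IL-1 alpha signal is at least 2 or at most -2, so actives lie on both sides; inactive means the rest.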 The list shows a part of the results.

Experiment: Components of the Cytosolic LPS Sensing Pathway: Gene Identification via Genome-wide siRNA Screen;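 further: robust z of the log signal after scaling to non-targeting control siRNA wells of the plate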
Details: RAW264.7 macrophages, IL-1a HTRF, actives lie on both sides, screened at 100 nM (by protocol), cells primed 5 h with Pam3CSK4 first
Method in brief: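 Cells (RAW264.7, 1×10^4 per well) were transfected with siRNA at 100 nM and cultured 48h at 37 degrees C. Pam3CSK4 was added for 5 hours; LipidA transfection followed for 24 hour. IL-1a was then measured by HTRF.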
In the case of “GGAGAAACUUCUUUAAAGCTT against 5830427D03Rik”, the z-score is reported as inactive: 0.573. With CCAUAAACUAUGAGUUUUGTT against Elovl7 the z-score was active: 2.4. With GGGCUACUCAAAGAAGAUATT against Galnt5 the z-score was inactive: -0.357. In the case of GGAUUUUAACAAAUUCUGCTT against Phf23, the z-score is reported as inactive: 0.813. In the case of GGUAGAUCAGUAAUAGUUATT against Glrb, the z-score is reported as inactive: 0.837. With GGUGAUUGUACUGUCAGCUTT against Olfr1221 the z-score was inactive: 0.0275. In the case of GGCUUUGUGCUUUAACCUUTT against Tceal5, the z-score is reported as inactive: -0.838. With GGAUUAAAUGCCUUGAAGGTT against Niban1 the z-score was inactive: 0.452. In the case of GGAUGCUCUAAGUUGGAGUTT against Tinf2, the z-score is reported as inactive: -0.193. In the case of GGGAUUGUUCAAAUGCUAUTT against Cldn8, the z-score is reported as inactive: 1.21. With GGCCUGAAGAAACACGAGATT against C1qtnf1 the z-score was inactive: -0.00127. For GGAAAUUCCGAGGAUGGAATT against H2-M3, the z-score was inactive: 0.226. In the case of GGAACAACAGGCAAUGAAUTT against Zfp874a, the z-score is reported as inactive: 1.15. With GCUGAAACCGCUAUUAAAUTT against Pou3f4 the z-score was inactive: 0.529. With GCUACCAACCAUUAAGAUATT against Lipk the z-score was inactive: -1.21. For GCGAAGGAUGAUGUGUAUUTT against Magt1, the z-score was inactive: 0.547. For CCCAAAACUACGACUCCUGTT against Dpf3, the z-score was inactive: -1.82. For GGUAUGAUCCAGUAAUCCUTT against Vmn1r5, the z-score was inactive: 0.243. With GGACAAAGGUGAAAACGGUTT against Gpr19 the z-score was inactive: 1.28. For CCUGCACCAUAAGAAAUCUTT against Fndc3c1, the z-score was inactive: 0.416. For CGAUGAGCCUUUUAAUUGUTT against Zfp871, the z-score was inactive: 1.04. For GGUUAUCAUGAGGCCUUGGTT against Olfr1339, the z-score was active: -2.38. In the case of GGGCUAUAACCCUGAAGAUTT against Rarg, the z-score is reported as inactive: -0.087. In the case of CGGUUGUUAAAAAAAGUCATT against Atad2, the z-score is reported as inactive: -1.24. With CCAUUGUAUAGGAAAGUGATT against Nras the z-score was inactive: 0.615. In the case of “GCCAUGUUCCCAUUUAACUTT against A730018C14Rik”, the z-score is reported as inactive: 1.34. In the case of GGAGGGACAUUAAACUAUUTT against Chchd3, the z-score is reported as inactive: 1.18. For GGAAGUUCAGAACUCAGUUTT against Mob4, the z-score was inactive: -1.23. In the case of GUAUGAACCUAACACAUUCTT against Vmn1r188, the z-score is reported as inactive: 0.493. In the case of CGUAGCACUUCUUCUCUUATT against Dync1li2, the z-score is reported as inactive: 0.484. In the case of GGAUUCAGCCCUGGUUUCATT against Wbp1, the z-score is reported as inactive: 0.459. With GCUUUGAUGACAAAAGUUCTT against Prdx6 the z-score was inactive: -0.109. With GGGCUCGUUAAUCUUUUACTT against Nop10 the z-score was inactive: 0.753. With GCUCAGCGACUGGCAAAGATT against Mrpl46 the z-score was inactive: 0.274. In the case of GCUAAGGUCUUACUCCUGGTT against Cdca4, the z-score is reported as inactive: 1.13. In the case of GGGUUAGGGUAUAAAAGAUTT against Kcna7, the z-score is reported as inactive: -0.373. With “GGAGAGAACGCAGAGAUACTT against 1700019N19Rik” the z-score was inactive: 1.34. In the case of GGAAGAGGAGGAACAGAGATT against Ino80b, the z-score is reported as inactive: -1.45. In the case of GGAUGACAUGAAAAUGGAATT against Llph, the z-score is reported as inactive: -0.559. With CCCAAGAAUACCAGUGUCGTT against Sdk2 the z-score was inactive: -1.03. For GCAUAAUAAGCCAAUUCUGTT against Med17, the z-score was inactive: -0.355. In the case of GCUUCUUCUAUUCAUCAUUTT against Olfr933, the z-score is reported as inactive: -0.174. For CCAGGUAGAGCAAUUUCUATT against Hpdl, the z-score was inactive: -0.267. With GGCCAUAGCCUAGCAUAACTT against Wdr4 the z-score was inactive: -1.28. For GCUAGUCGACAAUUAUUACTT against Pcdhga1, the z-score was inactive: 1.36. For GGACAAACUAUGGUACCAGTT against Phldb1, the z-score was inactive: -1.55. In the case of GGCUGCUUUCUGAUGGUCATT against Marchf3, the z-score is reported as inactive: 0.595. In the case of GGAACGUGAACUUUGUAUUTT against Nek2, the z-score is reported as inactive: 0.337. In the case of GGCCUCGUACUCCAUAAGUTT against Lrwd1, the z-score is reported as inactive: -0.209. With CCAUAAUUAGGGAAUCCAGTT against Itga5 the z-score was inactive: -0.755. In the case of GGCACUGCCAUUAACAAAATT against Nrip1, the z-score is reported as inactive: 0.0122. With GCUCGUAGCUUUCAACAAATT against Igdcc4 the z-score was inactive: 0.228. In the case of GGGAGCUAAGUACAGCAAGTT against Abt1, the z-score is reported as inactive: -0.274. For GGUCUGUGGGAAACAUAAATT against Gria3, the z-score was inactive: -0.233. In the case of GGUUAUGAGGAACAAUUAGTT against Klk11, the z-score is reported as inactive: -1.28. For CCAUGAUUAAGGGUCUCUATT against Ldha, the z-score was inactive: 0.111. For GGAGAUUAUCAGGGAAGAGTT against Nectin3, the z-score was inactive: 0.884. With GGAGUCUUCUGGAUAAACATT against Slc44a2 the z-score was inactive: 0.776. With GCAUCAGAUAUCAGGGCAUTT against Pabpc2 the z-score was inactive: -0.255. With GAGGAGCAAAUCCCGGUGATT against Prm3 the z-score was inactive: -1.41. For GCAACGCACCGCUUACUAATT against Smarcc2, the z-score was inactive: 0.71. In the case of CCGACUACCUUUCUUCACCTT against Cdh23, the z-score is reported as inactive: -1.24. In the case of CGGCCUGGGUCCCGUGGACTT against Hs3st6, the z-score is reported as inactive: -1.18. In the case of GGCUACAGAAGCUACUAAATT against Akr1c6, the z-score is reported as inactive: 1.23. In the case of CCGUGGAAACAGUCCUGAATT against Nudcd1, the z-score is reported as inactive: 0.646. For GGAUGAAGUGGCCAUAAAUTT against Olfr791, the z-score was inactive: -0.46. With GGCACUUCGUAUAAAGACCTT against Hadhb the z-score was inactive: -1.53. With CCUUUCCGACGAUAGGACCTT against Piga the z-score was inactive: -0.758. For GGGAAGUGACCAUCAAGAATT against Slc8a3, the z-score was active: 2.56. For GCGAACAAAAUGAGGACUUTT against Dusp23, the z-score was inactive: -0.321. For CCGACUGAAUCAUAUAUCUTT against Rpp25, the z-score was inactive: -0.489. For CGCACAAAGGAUUUUUGUATT against Epha7, the z-score was inactive: -0.064. For GGAUCAACAUCAGAGUUCUTT against Zfp119b, the z-score was inactive: -0.562. For CCGGAUCCAGCCAAUCAAATT against Fkbpl, the z-score was inactive: 1.03. In the case of GGCUUUUGAGAUUGCUAAATT against Mfap3l, the z-score is reported as inactive: -0.491. In the case of GGGACUGUAAUACCAUGAUTT against Rnase10, the z-score is reported as inactive: 0.0343. In the case of GGAACAAGUACAUACUUAUTT against Frs2, the z-score is reported as active: 2.09. For GGUAUUCCUCUAGAUCAGATT against Dysf, the z-score was inactive: 0.627. For GGAAAUACUCUCAUCAUCGTT against Olfr214, the z-score was inactive: -1.17. In the case of GGCUGUAUGCUCAGACUGATT against Olfr147, the z-score is reported as inactive: -1.25. With CCUGAUUCAUAUCACUAUUTT against Gpr82 the z-score was inactive: 1.17. With CCCUAGAAACUACAGUAAUTT against Tmem62 the z-score was inactive: -1.2. For GGAGCCUUGGAAGUGAUCUTT against Tmem71, the z-score was inactive: -0.515. With GCGUGUUAGGAAAAACUCUTT against Pars2 the z-score was inactive: 1.36. With AAUAGACUGGUACUCUCUGTT against Olfr476 the z-score was inactive: 1.08. With CCUCUUAGCCGGGUAGAGATT against S100a16 the z-score was inactive: 0.41. With GCUAUUGGUGCUUCAGUCCTT against Rtel1 the z-score was inactive: -0.458. For GGAUAUUAUUCUCACACUATT against Ddx6, the z-score was inactive: -0.134. With CGCAGAGGUUUUACUUUAATT against Mycbpap the z-score was inactive: 1.52. In the case of CCUACUCUGGUAAAACCUUTT against Immp1l, the z-score is reported as inactive: -0.365. For CGGAGUCAAAUUGUAUAAATT against Tm4sf20, the z-score was inactive: 0.714. For GCUCCUCCAGAUACAUGCUTT against Tbrg1, the z-score was inactive: -0.741. With GGUGGUUUGCUCAUUAGAUTT against Cdk5r1 the z-score was inactive: 1.81. For CCUGUCACGUCUUGUUUCCTT against Cpn2, the z-score was inactive: 0.132. In the case of GGGUUUCAUCCAGGAUCGATT against Bax, the z-score is reported as inactive: 0.714. With GGUGUUUAAACAGCACUGCTT against Map3k7cl the z-score was inactive: -0.0862. For GCCGCUUCUAUUUUCGUGGTT against Glra4, the z-score was inactive: 0.0536. For GGACUCAGAACUUGUGUAUTT against Wnt11, the z-score was inactive: 0.513. For CCUUUUUUUGGUAACUCGUTT against Sox11, the z-score was inactive: -0.0308. For CCUCCCUCACUCAAAUUGGTT against Bok, the z-score was inactive: -0.758. With GGCCUUCAUCCAACUCUGUTT against Ttc16 the z-score was inactive: -0.777. With GGGUUAAGCGCAAGUGUAATT against Degs2 the z-score was inactive: 0.331. With GGUCUUGGGAGAAGAUACATT against Gem the z-score was inactive: -1.09. In the case of GCUCUUCUCAGAGUGUGUATT against Rwdd3, the z-score is reported as inactive: -1.76. In the case of GGCUUCUUUUCACAAAUAGTT against Nipsnap1, the z-score is reported as inactive: -0.0394. In the case of GGCUUAUACAAGGUGCUCATT against Olfr661, the z-score is reported as inactive: -0.416. In the case of GCUUUUAAAGCAUGGGCAGTT against Alb, the z-score is reported as active: 2.44.
